The other results are listed elsewhere or left out.

By UniProt entry, the sequences of proteins in these tests, tags left out.
UniProt Q0JBA9, entry or part of it: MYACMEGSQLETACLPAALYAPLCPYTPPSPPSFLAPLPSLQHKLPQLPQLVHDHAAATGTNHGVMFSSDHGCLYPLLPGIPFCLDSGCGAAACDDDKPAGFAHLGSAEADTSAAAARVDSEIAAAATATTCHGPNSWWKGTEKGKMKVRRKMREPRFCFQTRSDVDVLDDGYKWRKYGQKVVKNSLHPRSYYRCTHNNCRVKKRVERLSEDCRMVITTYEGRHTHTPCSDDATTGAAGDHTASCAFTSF

This test deals with OsWRKY34 (Oryza sativa, UniProt Q0JBA9 1-250). Kind of test: protein-binding microarray (RPBM); PBS, 2% BSA, 51.3 ng/ul salmon testes DNA, 50 uM zinc acetate, 200 nM TF, 25 C, 1 h; high values mean tight binding. Particulars: protein: recombinant; tags: N-terminal polyhistidine and DsRed monomer fusion (pET32a); label: CyDye5-dUTP incorporated in the synthesized complementary strand; 3' TTTTT single-stranded linker to array surface; dsDNA, one strand shown. In outline:
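Binding signal is defined as the fluorescence intensity of each feature in arbitrary units, read on an Axon 4000B scanner. Transcription factors with N-terminal polyhistidine and DsRed fusions came from E. coli BL21-CodonPlus and were purified on Ni–NTA. They were incubated at 200 nM for 1 h at 25 °C on a custom Agilent array that had been made double-stranded with Cy5-dUTP, with 50 µM zinc acetate present, and the array was washed.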
On to “CCACATTTTCTGTTCCTTTGCAGCTGAGTTACTTTTATCACGGAGTCACCTAGTGCAG”, for which the binding signal is 9570 fluorescence intensity (a.u.). With “TGGTACTGTAGCGGTGCTCTTTCTTTGGTGGGTGCCACGTCGGAGTCACCTAGTGCAG” the figure was 8250 fluorescence intensity (a.u.). With “GTCAGCCCCGTCGTCGCCGGTCCGTCGCCGCCCGCGTCAGCGGAGTCACCTAGTGCAG” the figure was 8310 fluorescence intensity (a.u.); with “TCTCATGCATTGCCTCGTTTTTCTCTATAGACTATCTATACGGAGTCACCTAGTGCAG”, 11300 fluorescence intensity (a.u.); with “AAAACACCAAATTAGTTTTATTAAAACTAACTTTCAAATACGGAGTCACCTAGTGCAG”, 11900 fluorescence intensity (a.u.). The same measure for “ACTGAGTTGTGTTTGTATTTGTAGAGGGATGAGGTTGTAGCGGAGTCACCTAGTGCAG”: 8260 fluorescence intensity (a.u.); for “CTTCTTCTTCTTCTCCAAGCCGCCGCCTCGCATTAACTCACGGAGTCACCTAGTGCAG”: 11900 fluorescence intensity (a.u.); for “CCACACCGCATCGTCATCTACACATCTCCACCTCCCGCGGCGGAGTCACCTAGTGCAG”: 8910 fluorescence intensity (a.u.). “TCTTCTTGTGTTGTGCTTGTGCCTCCTCATTATTAATATCCGGAGTCACCTAGTGCAG”: the binding signal was 9690 fluorescence intensity (a.u.). The same measure for “AGTACTCGAATGCATCCCGGGCGTCCTCGCCATGATCGACCGGAGTCACCTAGTGCAG”: 8260 fluorescence intensity (a.u.). “GGTGTGTTTTTCTCATTATTTTATTTCTTAAGGTTGAACCCGGAGTCACCTAGTGCAG”: the binding signal is 8660 fluorescence intensity (a.u.). The same measure for “TACCTCTCTTCTCTTCTCCAATCTCTATCTATGTCTTCTTCGGAGTCACCTAGTGCAG”: 8640 fluorescence intensity (a.u.); for “GGCTTCTTTTTCGCTTGCCATTCGCGTGGAGGCGTTTCGACGGAGTCACCTAGTGCAG”: 8030 fluorescence intensity (a.u.); for “TCGTCCCTATTAGGATAGTACTAGATTTTACCTTACTTTTCGGAGTCACCTAGTGCAG”: 8240 fluorescence intensity (a.u.).

With “CCTCTCTCTCTCTCTCTCTCTCCTCTGCCTTCTCCGAGAACGGAGTCACCTAGTGCAG”, the binding signal was 9720 fluorescence intensity (a.u.).

“CTTTGGTCCTCACAGCCTCGACAATTATGTTACCGCGATCCGGAGTCACCTAGTGCAG”: the binding signal is 8940 fluorescence intensity (a.u.). Regarding “CATCCCAATTTTCTGGCCACACTTGCATCCCTCTGCCGCCCGGAGTCACCTAGTGCAG”, the binding signal is 10800 fluorescence intensity (a.u.). The same measure for “TTTGTTTTTGGTACATTCATGCCGTCTGCTGCATCTATCACGGAGTCACCTAGTGCAG”: 9300 fluorescence intensity (a.u.). As for “CCAGCTCCGTTTCTTGTCTTGATTTGGAATCCGGGAAATTCGGAGTCACCTAGTGCAG”, the binding signal was 8520 fluorescence intensity (a.u.).

Consider “ATTCATTTTAACACAAAGATTTTCCTCTTGTTCCTTTTTCCGGAGTCACCTAGTGCAG”, for which the binding signal was 8790 fluorescence intensity (a.u.). With “TGGGGCCCACATGGGCTTTTCGGGTGTGTCTTGGTCGTAGCGGAGTCACCTAGTGCAG” the figure was 9800 fluorescence intensity (a.u.). The same measure for “GCTCCGCTCTCTTCGATCGATCTAGGGTTTGGTCTTCTGTCGGAGTCACCTAGTGCAG”: 11600 fluorescence intensity (a.u.); for “TCAGTCTGTACACGCCTACACCAGAGTCCAGTGGTCCTAACGGAGTCACCTAGTGCAG”: 8100 fluorescence intensity (a.u.); for “CGTACACGTAATATCCAATTCTGTTCTTGGGCCTCACGAGCGGAGTCACCTAGTGCAG”: 8220 fluorescence intensity (a.u.).

Regarding “AAGGATATGCGTGCTCACTGTACATATCATTATTTCTCTCCGGAGTCACCTAGTGCAG”, the binding signal is 8480 fluorescence intensity (a.u.). With “TGAACCACTCTCGCTCTCGGTCTGTGTCTCTCTTGCCATACGGAGTCACCTAGTGCAG” the figure was 10700 fluorescence intensity (a.u.); with “GTGTTTGGTTGGGTAATTTTGCAGGTGTTGCTCGTCAATTCGGAGTCACCTAGTGCAG”, 10200 fluorescence intensity (a.u.). The same measure for “CTACACTCCTAATCTCTCTCTCTTTCTCGAGTGGAATCCACGGAGTCACCTAGTGCAG”: 8970 fluorescence intensity (a.u.); for “GATTGTTGGTTTGCTTCCCTTTGCATGTTTATAACCCCATCGGAGTCACCTAGTGCAG”: 10300 fluorescence intensity (a.u.). The same measure for “TGCACTAGTAGGATCATTATTTTCCCTTTTTTTTTCTTTTCGGAGTCACCTAGTGCAG”: 11300 fluorescence intensity (a.u.); for “CACCGTCCAACCCCGCGCGCCGTTCGCCCGTCCGCTGCCGCGGAGTCACCTAGTGCAG”: 11200 fluorescence intensity (a.u.); for “AATTCGTCATTAGTAAATATTTACCGTAGCATCACATTGTCGGAGTCACCTAGTGCAG”: 11300 fluorescence intensity (a.u.). Consider “CACGTACTGATCTCTCCGTCCCGTTTGCTTCAACAACACACGGAGTCACCTAGTGCAG”, for which the binding signal is 11000 fluorescence intensity (a.u.). The same measure for “CTTTCATATATGTGTGTGCTATGATTTGTTTTCTTCCTCACGGAGTCACCTAGTGCAG”: 11900 fluorescence intensity (a.u.). With “ACACATATGGTTCTTGCAGTGTCTCATGTTGGATCTATCCCGGAGTCACCTAGTGCAG” the figure was 9660 fluorescence intensity (a.u.); with “TAGTTTTTGTCATTGGGCGGGAAAGATATATAGTTGAACCCGGAGTCACCTAGTGCAG”, 9360 fluorescence intensity (a.u.). With “GCGATGCAAGCTGTGACACACTAACACTCTACTTGTACTACGGAGTCACCTAGTGCAG” the figure was 8800 fluorescence intensity (a.u.); with “GTATTATGGGTGGAGGCGGGCGGCTGAGCTGTTCCTGGGCCGGAGTCACCTAGTGCAG”, 8880 fluorescence intensity (a.u.); with “ATCCGACTCCGACGCCACCACCACCAGTTCACCACCGCTGCGGAGTCACCTAGTGCAG”, 8420 fluorescence intensity (a.u.). As to “ATCAGATCACCTCTCGAGCACGGCGCACCACCTCATCGGCCGGAGTCACCTAGTGCAG”, the binding signal was 10400 fluorescence intensity (a.u.). As for “TCCGAGATACCGATATAACCGATATCCTTACCGTTTCCGACGGAGTCACCTAGTGCAG”, the binding signal was 8510 fluorescence intensity (a.u.). The same measure for “TTCCATGCTTTTCCGATGGGTCACGGCCCACTTCTCTTCGCGGAGTCACCTAGTGCAG”: 8930 fluorescence intensity (a.u.).

Source of the values: article PMC7819943, “Rice protein-binding microarrays: a tool to detect cis-acting elements near promoter regions in rice”.
